# Source: publication PMC8772835
# No constants are given. Whether binding was seen depends on the method and setting.
# B1: ProSys(1-178), recombinant truncated Prosystemin (the Prosystemin sequence devoid of the Sys region) (domain or fragment, UniProt P27058 1-178)
# chain: MGTPSYDIKNKGDDMQEEPKVKLHHEKGGDEKEKIIEKETPSQDINNKDTISSYVLRDDTQEIPKMEHEEGGYVKEKIVEKETISQYIIKIEGDDDAQEKLKVEYEEEEYEKEKIVEKETPSQDINNKGDDAQEKPKVEHEEGDDKETPSQDIIKMEGEGALEITKVVCEKIIVREDL
# Target: ProSys(1-178), recombinant truncated Prosystemin (the Prosystemin sequence devoid of the Sys region) (tomato (Solanum lycopersicum)) (UniProt P27058)
# Assay: SEC-MALS; SEC-MALS-QELS on an SEC 2000 column, 0.5 mL/min, PBS 1x, 100 uM PMSF, 1 mM DTT pH 8.0; both purified
binder,measurement,value
B1,binding,no binding
